Test results from US8110187.
These are yes or no findings as the source states them, for the method shown. Some entries that bind do so weakly or less than the wild type.

Amino acid sequences for entries named in this document (tags omitted). A change or cut given only in a name is not applied to a line headed by its entry.
UniProt P29460: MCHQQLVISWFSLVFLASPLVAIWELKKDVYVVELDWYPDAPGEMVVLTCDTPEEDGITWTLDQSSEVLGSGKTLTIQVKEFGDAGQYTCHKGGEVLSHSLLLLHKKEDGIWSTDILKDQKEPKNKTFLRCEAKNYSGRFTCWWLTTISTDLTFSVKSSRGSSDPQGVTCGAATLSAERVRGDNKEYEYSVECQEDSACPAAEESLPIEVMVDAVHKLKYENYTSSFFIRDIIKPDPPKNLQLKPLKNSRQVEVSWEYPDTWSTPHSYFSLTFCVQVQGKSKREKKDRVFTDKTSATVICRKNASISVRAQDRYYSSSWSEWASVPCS
UniProt P29459: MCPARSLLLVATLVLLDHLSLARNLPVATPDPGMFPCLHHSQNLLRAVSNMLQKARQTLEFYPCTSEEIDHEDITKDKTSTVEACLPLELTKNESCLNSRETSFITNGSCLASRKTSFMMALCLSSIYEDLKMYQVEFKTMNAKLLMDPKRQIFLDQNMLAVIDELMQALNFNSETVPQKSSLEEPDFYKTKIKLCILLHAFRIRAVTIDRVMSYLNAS

Molecular target: free 40 kDa subunit of CLMF (non-reduced) (human) (UniProt P29460)
Assay: SDS-PAGE under reducing and non-reducing conditions

Substance: 35 kDa subunit of CLMF (from UniProt P29459 23-219) (ligand)
- binding: binds
